Assay results from PubChem BioAssay AID493014 (National Center for Advancing Translational Sciences (NCATS), 2011).
The list shows a part of the results. Shown are side measurements of this screen, not its main read-out; they come without a call. Most of these compounds were active or inconclusive in the main read-out, so they are no random draw. The note in brackets gives the kind of curve behind each potency; many fits are weak.

Experiment: qHTS Assay to Find Inhibitors of Chronic Active B-Cell Receptor Signaling
Settings: ABC-DLBCL IkBa-CBG/CBR reporter, luminescence ratio (green luciferase fused to IkBa over red control in TMD8 lymphoma cells), 4 h
Outline: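 Concentration-response series (up to 46 uM) were applied to TMD8 dual-reporter cells for 4 h at 37C with doxycycline. Green/red ratio, after filter-overlap correction, defined %Activity; red signal alone was normalised to basal cells and zero luminescence.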

[1] = measured here: CBR red luminescence, cell number
[2] = measured here: IkBa-CBG green luminescence

SMILES	AC50 [1]	AC50 [2]
Cc1ccc(S(=O)(=O)Nc2cccc3cccnc23)cc1	4.11 µM [rising, full curve, poor fit]	4.61 µM [falling, full curve]
COc1cc(C(=O)OC(C)CN2CCCC2)cc(OC)c1OC (configuration not stated)	3.66 µM [falling, full curve]	6.51 µM [rising, partial curve, poor fit]
O=C(COC(=O)C(Cc1ccccc1)NC(=O)c1cccs1)NCc1ccccc1 (configuration not stated)	16.4 µM [rising, single point]	
CCN(CC(=O)Nc1c(F)cccc1F)C(=O)CNC(=O)c1ccc(C)s1	31.6 µM [falling, single point]	
CC(=O)Nc1cccc(NC(=O)C(=O)c2cn(CC(=O)N3CCCCC3)c3ccccc23)c1	1.26 µM [falling, full curve]	
Cc1cccn2c(=O)c3cc(C(=O)NCc4ccco4)c(=N)n(CCc4ccccc4)c3nc12	1.12 µM [falling, full curve]	12.6 µM [rising, partial curve, poor fit]
COC(=O)CSc1ccc(S(=O)(=O)N2CCCCCC2)cc1[N+](=O)[O-]	6.31 µM [falling, full curve]	
O=C(CN1CCC(NC(=O)c2cccc(F)c2)CC1)Nc1ccc(Br)cc1		15.8 µM [rising, partial curve, poor fit]
CC1CC1C(=O)Nc1nc2ccc(S(C)(=O)=O)cc2s1 (configuration not stated)	25.1 µM [rising, single point]	
CC(C)(C)NC(=S)N/N=C/c1c(Cl)cccc1Cl	35.5 µM [rising, single point]	
CCc1ccccc1NC(=O)CC(c1ccc(OC)cc1)n1cccc1 (configuration not stated)	0.184 µM [falling, partial curve, poor fit]	
c1ccc(-c2cc(N3CCCCCC3)n[nH]2)cc1	0.00461 µM [falling, full curve, poor fit]	
CCC(CC)C(=O)Nc1c2cnn(-c3ccccc3)c2nc(=O)n1-c1ccccc1	25.1 µM [falling, single point]	
COC(=O)CC/C(O)=C1/C(=N)CC(C)(C)CC1=O	3.26 µM [rising, partial curve, poor fit]	
CCOC(=O)C1CCN(Cc2nc3ccc([N+](=O)[O-])cc3c(=O)n2-c2ccc(OC)cc2OC)CC1	14.1 µM [falling, partial curve, poor fit]	
CCCCc1ccc(NS(=O)(=O)c2cccc(C(=O)N3CCCN(C)CC3)c2)cc1	29.1 µM [falling, single point]	
COc1ccc(NC(=O)Nc2nnc(-c3ccccc3SCc3ccccc3)s2)cc1	0.00461 µM [falling, full curve, poor fit]	
CCc1cccc(C)c1NC(=S)N(CCCN1CCN(C)CC1)Cc1cccs1	4.47 µM [falling, partial curve, poor fit]	
COc1ccc(/C=C2\CCc3ccccc3C2=O)cc1OC	35.5 µM [falling, single point]	
CCOc1ccccc1NC(=O)C(CC(C)C)NC(=O)C1CCCCC1 (configuration not stated)	23.1 µM [rising, single point]	
Nc1c(-c2ccccc2)c(CSc2nc3ccccc3[nH]2)nn1-c1ccc(Cl)cc1	3.26 µM [rising, partial curve, poor fit]	

By substructure, those above with a carbonyl joined to an NH by a bond outside any ring
SMILES	AC50 [1]	AC50 [2]
O=C(COC(=O)C(Cc1ccccc1)NC(=O)c1cccs1)NCc1ccccc1 (configuration not stated)	16.4 µM [rising, single point]	
CCN(CC(=O)Nc1c(F)cccc1F)C(=O)CNC(=O)c1ccc(C)s1	31.6 µM [falling, single point]	
CC(=O)Nc1cccc(NC(=O)C(=O)c2cn(CC(=O)N3CCCCC3)c3ccccc23)c1	1.26 µM [falling, full curve]	
Cc1cccn2c(=O)c3cc(C(=O)NCc4ccco4)c(=N)n(CCc4ccccc4)c3nc12	1.12 µM [falling, full curve]	12.6 µM [rising, partial curve, poor fit]
O=C(CN1CCC(NC(=O)c2cccc(F)c2)CC1)Nc1ccc(Br)cc1		15.8 µM [rising, partial curve, poor fit]
CC1CC1C(=O)Nc1nc2ccc(S(C)(=O)=O)cc2s1 (configuration not stated)	25.1 µM [rising, single point]	
CCc1ccccc1NC(=O)CC(c1ccc(OC)cc1)n1cccc1 (configuration not stated)	0.184 µM [falling, partial curve, poor fit]	
CCC(CC)C(=O)Nc1c2cnn(-c3ccccc3)c2nc(=O)n1-c1ccccc1	25.1 µM [falling, single point]	
COc1ccc(NC(=O)Nc2nnc(-c3ccccc3SCc3ccccc3)s2)cc1	0.00461 µM [falling, full curve, poor fit]	
CCOc1ccccc1NC(=O)C(CC(C)C)NC(=O)C1CCCCC1 (configuration not stated)	23.1 µM [rising, single point]	

Going on with the list:

SMILES	AC50 [1]	AC50 [2]
O=c1c2c(nc3nc(Cc4ccccc4)[nH]n13)CCC2	9.2 µM [falling, partial curve, poor fit]	
Cc1ccc(C(=O)Nc2cccc3cccnc23)cc1C	4.47 µM [rising, full curve, poor fit]	
OC1c2cc(Br)ccc2N=C2CCCN21 (configuration not stated)	22.4 µM [falling, partial curve, poor fit]	
CCCn1c(=O)c(C(=O)Nc2ccccc2C(=O)OC)c(O)c2ccccc21	2.51 µM [rising, full curve, poor fit]	
C=CCN(c1ccccc1OC)S(=O)(=O)c1cccc(C(=O)NCc2cccs2)c1	10.3 µM [rising, partial curve]	
CC(=NCc1ccncc1)C1=C(O)c2ccccc2C1=O	2.06 µM [rising, single point]	
c1ccc(CCNc2nc(-c3ccncc3)cs2)cc1	14.1 µM [falling, single point]	
COc1ccc2c(c1)C(=NNc1ccc(C(=O)O)cc1)c1cc(OC)ccc1-2	11.2 µM [falling, partial curve, poor fit]	
CCN(CC)CCCNc1nc(-n2nc(C)cc2C)nc2sc3c(c12)CC(C)(C)OC3	5.01 µM [falling, full curve, poor fit]	
O=C(CN1CCN(c2ccccc2)CC1)Nc1c(C(=O)C2CC2)oc2ccccc12	1.3 µM [rising, full curve]	
COc1cccc(NC(=O)CN(C)C(=O)c2ccc(-c3ccccc3Cl)o2)c1	35.5 µM [falling, single point]	
Cc1cccc2sc(N(CCCN(C)C)C(=O)c3ccc(C(=O)c4ccccc4)cc3)nc12	7.94 µM [falling, partial curve, poor fit]	
Cc1cc(C)c(/C=N/NC(=O)c2nnn(-c3nonc3N)c2CN2CCC(C)CC2)c(C)c1	4.47 µM [rising, full curve, poor fit]	
C=CCc1ccc(OCc2ccc(C(=O)Nc3ccc(NC(C)=O)cc3)o2)c(OC)c1	1.41 µM [falling, full curve, poor fit]	
CCCC1(c2ccccc2)NC(=O)N(CC(=O)c2[nH]c(C)c(C(=O)OCC)c2C)C1=O (configuration not stated)	7.94 µM [falling, partial curve, poor fit]	
Cc1cnc(NC(=O)CC2CCCC2)s1	35.5 µM [falling, partial curve, poor fit]	
CC(=O)N/C(=N\c1nc(C)cc(C)n1)Nc1ccccc1Cl	2.51 µM [rising, full curve, poor fit]	
CCCOc1ccc(C(=O)NNC(=S)NC(=O)c2cccs2)cc1	31.6 µM [rising, single point]	
Cc1ccc(Nc2cc(C)c3c(O)cccc3n2)cc1C	7.08 µM [rising, full curve, poor fit]	
CN=Cc1nc(-c2ccccc2)oc1O	6.51 µM [rising, single point]	
COc1ccccc1NS(=O)(=O)c1ccc(C(=O)N2CCCC(C(F)(F)F)C2)cc1 (configuration not stated)	0.146 µM [falling, full curve, poor fit]	

Nothing new here: 2 of the compounds above.
SMILES	AC50 [1]	AC50 [2]
OC1c2cc(Br)ccc2N=C2CCCN21 (configuration not stated)	22.4 µM [falling, partial curve, poor fit]	
CCCn1c(=O)c(C(=O)Nc2ccccc2C(=O)OC)c(O)c2ccccc21	2.51 µM [rising, full curve, poor fit]	

(list continues)

SMILES	AC50 [1]	AC50 [2]
CCOC(=O)C(C)/C(C)=N/NC(=O)c1cc2ccccc2cc1O (configuration not stated)	18.4 µM [falling, single point]	
O=C(CCCCCNC(=O)c1ccccc1)N=Nc1c(O)[nH]c2c(Br)cc(Br)cc12	0.891 µM [falling, partial curve, poor fit]	
O=C(Cn1cnc2cc([N+](=O)[O-])ccc2c1=O)Nc1cccc(S(=O)(=O)N2CCOCC2)c1	35.5 µM [falling, single point]	
Oc1ccc(/C=N/NC(=S)N2CCOCC2)cc1	3.55 µM [falling, partial curve]	5.62 µM [falling, single point]
COc1ccccc1C(=O)N/N=C/c1ccc(Cl)s1	16.4 µM [falling, partial curve]	
O=C(Nc1ccccc1)N1CCn2c(nc3ccccc32)C1	12.6 µM [falling, partial curve, poor fit]	
O=C(Nc1ccc(Cl)cc1)OCCn1nnnc1C(c1ccccc1)N1CCOCC1 (configuration not stated)	25.9 µM [rising, single point]	
COc1cc(C(=O)OCCNC(=O)c2ccccc2)cc(OC)c1OC	25.1 µM [rising, partial curve, poor fit]	
Cc1cc(C)nc(SCC(=O)N/N=C/c2cccn2-c2cccc(C(F)(F)F)c2)n1	35.5 µM [falling, partial curve, poor fit]	
CN(C)C(=O)CN(c1ccc(F)c(Cl)c1)S(C)(=O)=O	6.51 µM [falling, single point]	
CC(=O)Nc1ccc(/C(C)=N/Nc2nc(Nc3ccccc3)nc(N3CCOCC3)n2)cc1	15.8 µM [falling, single point]	
CC(C)CNC(=O)c1nn(Cc2ccccc2)c(=O)c2ccccc12	25.1 µM [falling, single point]	
CCCc1nnc(NC(=O)c2nc(S(=O)(=O)Cc3cccc(C)c3)ncc2Cl)s1	11.2 µM [falling, partial curve]	11.2 µM [rising, partial curve]
c1ccc(-n2ncc3c(N4CCCC4)ncnc32)cc1	0.708 µM [rising, full curve, poor fit]	
CCOc1ccc(NC(=O)CN2CCN(C(=O)c3ccco3)CC2)cc1S(=O)(=O)N1CCCC1	5.17 µM [rising, partial curve, poor fit]	
Cn1c(=O)cc(C(=O)N/N=C/c2ccc(F)cc2)[nH]c1=O	31.6 µM [falling, single point]	
COCc1nnc(NC(=O)c2ccccc2[N+](=O)[O-])s1	23.1 µM [rising, partial curve, poor fit]	
COc1ccc(-n2c(SCC(N)=O)nnc2-c2ccccc2F)cc1	25.9 µM [rising, single point]	
C#CC(CC)(CC)NC(=S)Nc1cccc(C(C)=O)c1	13 µM [rising, partial curve]	
COc1ccc(N2C(=O)CC(NNC(=O)c3cc(C)oc3C)C2=O)cc1 (configuration not stated)	3.98 µM [falling, partial curve, poor fit]	
